{"sequences": {"note": "Amino acid sequences for entries named in this document (tags omitted).", "UniProt C8YR32": "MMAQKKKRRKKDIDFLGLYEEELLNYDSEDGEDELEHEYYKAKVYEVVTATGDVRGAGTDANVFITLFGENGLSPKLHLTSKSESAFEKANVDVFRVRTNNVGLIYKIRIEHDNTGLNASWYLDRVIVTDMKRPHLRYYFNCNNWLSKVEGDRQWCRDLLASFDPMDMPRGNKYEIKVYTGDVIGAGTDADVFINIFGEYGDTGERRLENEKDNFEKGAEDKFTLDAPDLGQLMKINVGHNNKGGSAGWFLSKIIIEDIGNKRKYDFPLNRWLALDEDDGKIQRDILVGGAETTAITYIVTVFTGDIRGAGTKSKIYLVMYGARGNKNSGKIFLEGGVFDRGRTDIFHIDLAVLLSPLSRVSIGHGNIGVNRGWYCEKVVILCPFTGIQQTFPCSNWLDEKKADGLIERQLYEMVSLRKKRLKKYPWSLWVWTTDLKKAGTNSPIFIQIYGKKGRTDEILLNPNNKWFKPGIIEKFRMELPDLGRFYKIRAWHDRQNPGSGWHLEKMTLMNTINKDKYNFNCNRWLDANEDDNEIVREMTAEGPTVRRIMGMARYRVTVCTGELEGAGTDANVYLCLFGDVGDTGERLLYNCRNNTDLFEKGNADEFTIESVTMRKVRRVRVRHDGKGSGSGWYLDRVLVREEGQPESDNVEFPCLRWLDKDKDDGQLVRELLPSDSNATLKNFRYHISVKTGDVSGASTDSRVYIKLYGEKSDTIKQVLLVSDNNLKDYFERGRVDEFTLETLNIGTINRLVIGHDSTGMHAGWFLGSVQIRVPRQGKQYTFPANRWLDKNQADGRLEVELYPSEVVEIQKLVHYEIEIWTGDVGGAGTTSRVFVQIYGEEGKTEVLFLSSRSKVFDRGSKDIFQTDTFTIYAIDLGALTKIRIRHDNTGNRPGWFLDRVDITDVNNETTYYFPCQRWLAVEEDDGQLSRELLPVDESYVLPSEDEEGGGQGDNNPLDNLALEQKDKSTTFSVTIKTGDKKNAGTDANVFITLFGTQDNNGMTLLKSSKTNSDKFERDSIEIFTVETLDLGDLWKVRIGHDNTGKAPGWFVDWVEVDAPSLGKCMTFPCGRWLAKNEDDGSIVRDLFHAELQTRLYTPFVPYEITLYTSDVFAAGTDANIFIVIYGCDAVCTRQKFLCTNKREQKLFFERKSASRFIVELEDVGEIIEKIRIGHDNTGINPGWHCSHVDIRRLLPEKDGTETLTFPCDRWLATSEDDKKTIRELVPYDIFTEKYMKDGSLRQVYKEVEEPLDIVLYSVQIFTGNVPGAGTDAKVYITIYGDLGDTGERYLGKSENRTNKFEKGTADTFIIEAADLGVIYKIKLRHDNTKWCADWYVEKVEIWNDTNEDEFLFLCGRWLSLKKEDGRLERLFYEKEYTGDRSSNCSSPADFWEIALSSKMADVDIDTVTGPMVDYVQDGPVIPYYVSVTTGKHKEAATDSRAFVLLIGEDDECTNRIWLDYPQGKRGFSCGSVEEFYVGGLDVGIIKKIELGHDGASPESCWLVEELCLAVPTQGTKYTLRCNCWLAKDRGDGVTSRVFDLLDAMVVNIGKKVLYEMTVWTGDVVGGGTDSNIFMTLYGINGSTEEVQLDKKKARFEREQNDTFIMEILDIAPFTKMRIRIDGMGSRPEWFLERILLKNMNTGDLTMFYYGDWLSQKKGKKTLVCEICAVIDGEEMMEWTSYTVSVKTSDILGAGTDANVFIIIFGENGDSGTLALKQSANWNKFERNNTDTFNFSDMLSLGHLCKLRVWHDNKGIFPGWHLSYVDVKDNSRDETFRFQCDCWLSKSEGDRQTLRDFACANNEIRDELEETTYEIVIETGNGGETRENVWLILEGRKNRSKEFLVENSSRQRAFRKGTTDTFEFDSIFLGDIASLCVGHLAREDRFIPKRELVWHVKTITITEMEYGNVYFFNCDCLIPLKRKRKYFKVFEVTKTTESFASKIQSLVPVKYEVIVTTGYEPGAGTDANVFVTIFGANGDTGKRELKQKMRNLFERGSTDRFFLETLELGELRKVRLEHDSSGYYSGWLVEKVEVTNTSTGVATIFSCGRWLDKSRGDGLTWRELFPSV", "UniProt Q16665": "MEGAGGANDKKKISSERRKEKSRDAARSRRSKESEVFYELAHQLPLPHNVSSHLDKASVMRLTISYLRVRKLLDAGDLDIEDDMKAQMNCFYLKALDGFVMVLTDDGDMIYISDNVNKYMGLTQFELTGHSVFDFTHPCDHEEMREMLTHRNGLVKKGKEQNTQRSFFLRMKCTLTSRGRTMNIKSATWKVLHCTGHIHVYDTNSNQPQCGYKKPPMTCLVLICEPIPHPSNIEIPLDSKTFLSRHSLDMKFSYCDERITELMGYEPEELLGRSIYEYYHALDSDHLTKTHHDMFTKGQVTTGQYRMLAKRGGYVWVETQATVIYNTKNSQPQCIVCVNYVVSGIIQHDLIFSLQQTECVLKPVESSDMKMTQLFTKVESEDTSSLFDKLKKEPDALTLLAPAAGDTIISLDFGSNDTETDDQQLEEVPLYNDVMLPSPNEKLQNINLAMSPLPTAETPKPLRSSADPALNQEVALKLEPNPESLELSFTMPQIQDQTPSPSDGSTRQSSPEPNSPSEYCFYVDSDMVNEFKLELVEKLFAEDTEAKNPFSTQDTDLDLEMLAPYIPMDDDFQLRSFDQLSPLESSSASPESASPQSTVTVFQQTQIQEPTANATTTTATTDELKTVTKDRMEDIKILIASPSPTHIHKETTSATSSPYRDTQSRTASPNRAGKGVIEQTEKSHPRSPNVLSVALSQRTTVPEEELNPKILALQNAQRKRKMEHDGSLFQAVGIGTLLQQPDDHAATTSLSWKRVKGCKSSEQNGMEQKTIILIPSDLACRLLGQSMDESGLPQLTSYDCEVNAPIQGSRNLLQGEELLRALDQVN"}, "source": "paper PMC9716578", "molecular_target": "MYC-tagged LOXHD1 (pcDNA3-LOXHD1-Myc) (mouse) (UniProt C8YR32)", "assay": "co-IP; HEK293T co-transfected with HA-HIF1α and Myc-LOXHD1 (1 to 2), cultured under hypoxia (1% O2); 500 μg whole cell lysate in IP buffer (20 mM Tris pH7.5, 150 mM NaCl, 1% Triton-X 100) immunoprecipitated with MYC-tag antibody, protein G Dynabeads, washes with 300 mM NaCl; blots with anti-HA and …", "note": "No constants are given. Whether binding was seen depends on the method and setting. Binding seen in cells or lysates may run through a third protein. Some binding calls cover weakened binding; strength is not graded here.", "data": [{"substance": "HA-tagged HIF1α (pCDNA-HA-HIF1A) (from UniProt Q16665 1-826)", "values": [{"measurement": "binding", "result": "binds"}]}]}
